According to paper PMC9860313 (2022):
Construct, isoform or probe ends are uncertain for at least one entry.

System: RNA-binding Fab (antibody antigen-binding fragment, ref 25 + binds AAACA pentaloop)
Experiment: X-ray crystallography
Settings: recombinant protein

GGCGAUACCAGCGAAACACGCCCUUGGCAGCGUC
binding result (TAL2 soaked (1.1 mM), 2.46 A): binds | binding result (ligand-free, 1.81 A): binds
